Laboratory results published in patent US20070187646A1, “Surface-active amines and methods of using same to impede corrosion” (priority 2006, published 2007).
Some results were stated once for a whole list of compounds, not compound by compound.

Experiment: Quartz crystal microbalance weight loss of amine-treated iron surface in unstirred 0.5 M sodium sulfate solution
Settings: 6.5 hours in unstirred 0.5 M Na2SO4 (pH=5.8)
Procedure: Weightloss measurements were performed by immersing the amine-coated iron surface in 0.5 M sodium sulfate solution (pH=5.8), and comparing the results observed with those obtained in case of an unprotected iron surface. From the results achieved, the following four major conclusions follow:
Table I below correlates the pKa of an amine with the percentage weight loss observed (using the quartz crystal microbalance technique) when the amine-treated iron surface was immersed for 6.5 hours in 0.5 M Na2SO4 solution (pH=5.8). See pKa prediction of organic acids and bases, D. D. Perrin, B. Dempsey, E. P. Serjeant (1981), Chapman and Hall. Physical methods in Heterocyclic Chemistry Vol. 1, A. A. Katritzky (1963), Academic Press.

Row | Compound | percent wt. loss [%]
1 | CC(C)NC(C)C [diisopropylamine] | < 1
2 | C1CCNCC1 [piperidine] | < 1
